The values that follow are results of earlier work, collected in publication PMC8762671 (Chemical research in toxicology, 2021).

Like-named read-outs stand apart in the source and are kept apart here.

In the data set the test system is human iPSC-derived cardiomyocytes. The note with it: ref [36], cited from earlier work.

As to `CC(C)NCC(O)COc1cccc2ccccc12` (centres unmarked) [propranolol], the “potency (EC50 in BPM) compared to the standard donor 1434” value by setting is: (donor 1083) “more potent”; (donor 1392) “less potent”.
